Laboratory results taken from the supplement of paper PMC11732987, “Enantioselective OTUD7B fragment discovery through chemoproteomics screening and high-throughput optimisation” (Communications Chemistry, 2025).
Some of the results follow. The data scatter; read single values as rough.

Sequences of proteins named here, by UniProt entry; tags and fusion partners are left off. A change or cut given only in a name is not applied to a line headed by its entry. Residues count along the entry.
UniProt Q8N584: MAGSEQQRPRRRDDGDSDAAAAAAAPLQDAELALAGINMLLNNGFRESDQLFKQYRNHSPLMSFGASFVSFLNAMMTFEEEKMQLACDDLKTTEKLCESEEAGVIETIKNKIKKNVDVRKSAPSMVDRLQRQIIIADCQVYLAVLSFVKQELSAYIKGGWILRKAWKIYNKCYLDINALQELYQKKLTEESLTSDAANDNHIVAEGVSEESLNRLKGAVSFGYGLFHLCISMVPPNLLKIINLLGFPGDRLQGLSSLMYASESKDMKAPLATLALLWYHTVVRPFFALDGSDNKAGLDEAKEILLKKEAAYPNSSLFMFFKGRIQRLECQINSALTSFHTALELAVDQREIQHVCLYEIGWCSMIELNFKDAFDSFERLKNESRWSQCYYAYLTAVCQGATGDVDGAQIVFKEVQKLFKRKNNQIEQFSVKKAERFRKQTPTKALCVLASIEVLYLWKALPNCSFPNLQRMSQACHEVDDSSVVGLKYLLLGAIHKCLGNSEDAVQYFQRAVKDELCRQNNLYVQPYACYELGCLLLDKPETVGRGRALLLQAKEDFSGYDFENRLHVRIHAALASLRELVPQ
UniProt Q7Z4G4: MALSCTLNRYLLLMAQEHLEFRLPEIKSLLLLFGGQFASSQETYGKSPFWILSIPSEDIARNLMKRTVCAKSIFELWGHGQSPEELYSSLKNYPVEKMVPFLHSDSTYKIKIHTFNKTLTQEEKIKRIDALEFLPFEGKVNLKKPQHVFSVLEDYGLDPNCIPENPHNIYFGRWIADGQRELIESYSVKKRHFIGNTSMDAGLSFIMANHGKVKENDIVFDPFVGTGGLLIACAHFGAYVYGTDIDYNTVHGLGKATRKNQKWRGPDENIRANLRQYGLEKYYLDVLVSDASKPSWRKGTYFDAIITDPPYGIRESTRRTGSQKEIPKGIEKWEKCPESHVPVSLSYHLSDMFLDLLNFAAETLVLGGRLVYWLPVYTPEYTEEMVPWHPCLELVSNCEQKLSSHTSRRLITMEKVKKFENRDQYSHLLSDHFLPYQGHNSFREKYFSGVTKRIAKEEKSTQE
UniProt Q5TAX3: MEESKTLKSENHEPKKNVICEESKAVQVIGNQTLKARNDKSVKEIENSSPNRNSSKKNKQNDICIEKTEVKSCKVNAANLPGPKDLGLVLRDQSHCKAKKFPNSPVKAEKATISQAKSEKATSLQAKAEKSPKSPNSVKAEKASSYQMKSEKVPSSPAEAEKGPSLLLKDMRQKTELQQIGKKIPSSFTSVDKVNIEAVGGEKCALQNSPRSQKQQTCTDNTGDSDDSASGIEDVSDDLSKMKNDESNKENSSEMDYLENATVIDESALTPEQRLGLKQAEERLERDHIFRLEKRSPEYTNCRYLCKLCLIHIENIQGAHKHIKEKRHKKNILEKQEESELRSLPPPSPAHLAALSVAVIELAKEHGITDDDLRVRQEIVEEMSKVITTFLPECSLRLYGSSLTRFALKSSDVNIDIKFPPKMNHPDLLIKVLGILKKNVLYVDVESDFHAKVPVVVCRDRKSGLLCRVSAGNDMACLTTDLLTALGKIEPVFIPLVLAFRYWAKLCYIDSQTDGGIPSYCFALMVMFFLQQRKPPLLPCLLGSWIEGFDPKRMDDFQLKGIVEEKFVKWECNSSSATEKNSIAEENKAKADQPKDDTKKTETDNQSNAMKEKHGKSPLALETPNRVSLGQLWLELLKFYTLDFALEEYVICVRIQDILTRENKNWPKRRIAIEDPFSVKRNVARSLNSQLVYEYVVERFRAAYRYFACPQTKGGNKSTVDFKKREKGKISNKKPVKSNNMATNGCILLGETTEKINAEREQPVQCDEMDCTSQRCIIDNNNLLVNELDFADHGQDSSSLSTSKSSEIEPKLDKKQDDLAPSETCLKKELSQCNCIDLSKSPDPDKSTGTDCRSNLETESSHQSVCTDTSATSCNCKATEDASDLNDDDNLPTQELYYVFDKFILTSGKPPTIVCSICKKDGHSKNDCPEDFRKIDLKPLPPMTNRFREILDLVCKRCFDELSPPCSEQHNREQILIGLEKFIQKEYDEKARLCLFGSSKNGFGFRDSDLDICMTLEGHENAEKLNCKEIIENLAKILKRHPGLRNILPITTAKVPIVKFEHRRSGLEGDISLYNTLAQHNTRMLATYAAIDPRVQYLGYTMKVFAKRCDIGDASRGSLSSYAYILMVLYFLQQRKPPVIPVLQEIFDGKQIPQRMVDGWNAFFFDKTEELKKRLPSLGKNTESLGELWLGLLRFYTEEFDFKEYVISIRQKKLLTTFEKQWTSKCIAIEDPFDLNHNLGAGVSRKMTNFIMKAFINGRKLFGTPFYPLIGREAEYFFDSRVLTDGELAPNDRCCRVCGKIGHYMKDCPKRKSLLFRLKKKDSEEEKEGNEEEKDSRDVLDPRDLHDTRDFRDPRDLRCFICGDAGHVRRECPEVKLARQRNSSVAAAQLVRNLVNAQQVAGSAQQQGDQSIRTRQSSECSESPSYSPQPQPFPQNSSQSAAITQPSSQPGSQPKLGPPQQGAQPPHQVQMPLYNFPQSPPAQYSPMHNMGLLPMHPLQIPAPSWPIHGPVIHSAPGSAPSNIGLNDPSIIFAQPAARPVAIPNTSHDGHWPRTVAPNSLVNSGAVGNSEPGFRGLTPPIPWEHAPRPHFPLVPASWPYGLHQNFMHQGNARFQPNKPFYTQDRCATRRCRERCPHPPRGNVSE
UniProt Q9Y4A5, 2104-2124: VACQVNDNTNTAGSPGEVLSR
UniProt Q9Y4A5, whole entry, looked up: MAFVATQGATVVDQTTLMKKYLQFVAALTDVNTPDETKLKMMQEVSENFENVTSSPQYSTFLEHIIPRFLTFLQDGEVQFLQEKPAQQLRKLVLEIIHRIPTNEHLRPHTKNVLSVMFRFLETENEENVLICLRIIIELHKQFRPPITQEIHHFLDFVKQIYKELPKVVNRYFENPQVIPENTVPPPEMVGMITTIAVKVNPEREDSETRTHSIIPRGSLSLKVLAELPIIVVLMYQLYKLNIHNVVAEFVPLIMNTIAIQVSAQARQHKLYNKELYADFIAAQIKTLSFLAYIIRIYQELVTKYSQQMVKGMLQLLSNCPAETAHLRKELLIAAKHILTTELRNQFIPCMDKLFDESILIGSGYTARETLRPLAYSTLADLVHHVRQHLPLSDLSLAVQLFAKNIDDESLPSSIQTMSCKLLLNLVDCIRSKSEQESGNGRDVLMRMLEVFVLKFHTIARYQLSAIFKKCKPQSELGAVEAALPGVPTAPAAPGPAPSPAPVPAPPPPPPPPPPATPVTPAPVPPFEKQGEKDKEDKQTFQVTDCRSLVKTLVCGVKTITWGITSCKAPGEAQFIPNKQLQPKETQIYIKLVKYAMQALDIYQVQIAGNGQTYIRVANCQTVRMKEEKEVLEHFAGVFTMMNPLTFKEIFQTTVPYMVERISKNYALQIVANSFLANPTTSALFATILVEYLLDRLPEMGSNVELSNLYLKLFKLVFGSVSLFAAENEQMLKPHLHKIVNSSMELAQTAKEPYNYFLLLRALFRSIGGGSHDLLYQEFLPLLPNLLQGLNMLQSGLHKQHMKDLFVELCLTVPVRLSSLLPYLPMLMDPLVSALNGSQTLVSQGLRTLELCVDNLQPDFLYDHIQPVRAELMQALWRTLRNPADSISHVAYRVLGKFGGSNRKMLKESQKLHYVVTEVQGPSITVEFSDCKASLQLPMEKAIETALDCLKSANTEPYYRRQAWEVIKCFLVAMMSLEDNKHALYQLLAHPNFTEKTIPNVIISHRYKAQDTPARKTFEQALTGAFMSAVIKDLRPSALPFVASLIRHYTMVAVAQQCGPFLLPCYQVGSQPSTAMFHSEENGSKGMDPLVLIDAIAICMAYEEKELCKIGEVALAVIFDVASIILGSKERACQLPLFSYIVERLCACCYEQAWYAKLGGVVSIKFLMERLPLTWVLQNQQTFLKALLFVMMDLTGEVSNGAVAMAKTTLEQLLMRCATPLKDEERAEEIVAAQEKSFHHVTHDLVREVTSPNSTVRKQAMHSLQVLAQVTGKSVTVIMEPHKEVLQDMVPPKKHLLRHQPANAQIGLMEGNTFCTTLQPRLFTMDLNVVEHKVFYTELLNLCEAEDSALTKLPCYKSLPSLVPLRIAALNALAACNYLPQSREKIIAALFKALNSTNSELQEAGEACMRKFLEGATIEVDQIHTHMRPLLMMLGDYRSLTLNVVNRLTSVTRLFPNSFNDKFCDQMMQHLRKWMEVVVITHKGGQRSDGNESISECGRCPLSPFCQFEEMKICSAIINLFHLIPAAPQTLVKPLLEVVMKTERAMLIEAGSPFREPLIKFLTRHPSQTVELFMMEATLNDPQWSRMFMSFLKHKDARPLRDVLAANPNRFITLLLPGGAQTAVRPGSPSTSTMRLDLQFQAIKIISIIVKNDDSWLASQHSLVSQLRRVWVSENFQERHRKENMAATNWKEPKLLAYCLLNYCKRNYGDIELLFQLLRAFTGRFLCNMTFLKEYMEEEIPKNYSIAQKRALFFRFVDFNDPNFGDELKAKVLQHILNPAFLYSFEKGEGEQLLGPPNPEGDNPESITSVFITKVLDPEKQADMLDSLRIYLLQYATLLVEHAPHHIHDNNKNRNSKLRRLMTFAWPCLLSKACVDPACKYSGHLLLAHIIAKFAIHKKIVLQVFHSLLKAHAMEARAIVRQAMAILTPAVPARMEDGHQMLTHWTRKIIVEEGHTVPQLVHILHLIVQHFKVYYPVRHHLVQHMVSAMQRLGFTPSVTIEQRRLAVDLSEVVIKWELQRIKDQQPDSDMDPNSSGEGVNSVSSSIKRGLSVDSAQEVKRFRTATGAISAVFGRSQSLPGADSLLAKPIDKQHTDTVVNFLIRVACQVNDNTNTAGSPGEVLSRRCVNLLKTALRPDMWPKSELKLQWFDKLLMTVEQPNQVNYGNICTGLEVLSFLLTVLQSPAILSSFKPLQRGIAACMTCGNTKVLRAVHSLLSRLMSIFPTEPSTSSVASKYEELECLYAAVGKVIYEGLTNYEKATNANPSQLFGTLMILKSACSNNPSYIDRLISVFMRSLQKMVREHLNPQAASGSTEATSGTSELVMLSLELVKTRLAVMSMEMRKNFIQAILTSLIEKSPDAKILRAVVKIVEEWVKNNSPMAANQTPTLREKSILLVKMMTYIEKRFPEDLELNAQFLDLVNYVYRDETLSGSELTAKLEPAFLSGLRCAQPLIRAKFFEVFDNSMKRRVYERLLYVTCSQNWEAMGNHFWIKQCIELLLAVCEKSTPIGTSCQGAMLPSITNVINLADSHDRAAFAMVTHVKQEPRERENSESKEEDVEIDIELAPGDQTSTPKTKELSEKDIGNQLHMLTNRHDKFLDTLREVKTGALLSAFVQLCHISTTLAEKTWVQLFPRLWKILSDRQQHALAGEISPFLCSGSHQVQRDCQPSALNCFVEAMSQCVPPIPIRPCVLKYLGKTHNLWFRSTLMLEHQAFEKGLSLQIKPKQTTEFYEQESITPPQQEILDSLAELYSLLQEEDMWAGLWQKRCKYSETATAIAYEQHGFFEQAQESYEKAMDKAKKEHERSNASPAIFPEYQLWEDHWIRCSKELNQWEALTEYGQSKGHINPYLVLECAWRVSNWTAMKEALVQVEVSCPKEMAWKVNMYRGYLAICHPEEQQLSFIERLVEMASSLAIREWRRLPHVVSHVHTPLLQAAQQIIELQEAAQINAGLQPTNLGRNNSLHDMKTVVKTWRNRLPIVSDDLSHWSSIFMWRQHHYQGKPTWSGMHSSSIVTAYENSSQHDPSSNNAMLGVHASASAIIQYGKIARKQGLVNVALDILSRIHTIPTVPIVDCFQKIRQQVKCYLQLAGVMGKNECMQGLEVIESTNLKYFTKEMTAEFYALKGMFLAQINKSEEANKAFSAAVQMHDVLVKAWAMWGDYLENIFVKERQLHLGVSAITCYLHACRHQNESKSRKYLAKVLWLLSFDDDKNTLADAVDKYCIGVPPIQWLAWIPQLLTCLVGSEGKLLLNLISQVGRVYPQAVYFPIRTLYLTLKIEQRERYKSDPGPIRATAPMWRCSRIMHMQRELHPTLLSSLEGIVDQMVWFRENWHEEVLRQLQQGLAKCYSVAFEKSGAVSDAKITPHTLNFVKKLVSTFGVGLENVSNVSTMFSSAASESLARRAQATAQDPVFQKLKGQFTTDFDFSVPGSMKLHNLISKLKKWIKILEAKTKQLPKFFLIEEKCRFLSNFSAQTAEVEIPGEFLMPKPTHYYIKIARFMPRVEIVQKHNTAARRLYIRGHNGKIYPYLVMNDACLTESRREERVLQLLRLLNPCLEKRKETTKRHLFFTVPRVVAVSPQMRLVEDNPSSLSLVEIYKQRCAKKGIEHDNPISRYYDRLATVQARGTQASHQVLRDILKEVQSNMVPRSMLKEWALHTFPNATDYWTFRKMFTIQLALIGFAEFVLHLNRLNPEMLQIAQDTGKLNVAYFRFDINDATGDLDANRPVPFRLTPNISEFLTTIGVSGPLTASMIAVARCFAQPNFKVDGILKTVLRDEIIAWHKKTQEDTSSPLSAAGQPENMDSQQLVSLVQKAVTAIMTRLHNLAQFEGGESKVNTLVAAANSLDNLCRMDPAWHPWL

compound: ClCC(=O)N[C@H]1CCCc2ccccc12; assay: log2 mean competition ratio of IA-DTB cysteine labelling (DMSO/compound) (log2 ratio); higher = stronger cysteine engagement by compound; details: 200 µM; treatment time: 4 h; cell line lysate: HEK293T
Procedure: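 IA-DTB competitive cysteine chemoproteomics in HEK293T RIPA lysate. Lysates were treated with compound 29 or 30 at 50 or 200 µM for 4 h, then IA-DTB (500 µM, 1 h), trypsin-digested, NeutrAvidin-enriched and analysed by diaPASEF. Competition ratio = intensity DMSO / intensity compound (n=4 treated, n=64 DMSO); binding: mean log2 CR ≥ 1 and p ≤ 0.05 plus QC filters. Target is the cysteine site.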

| Target | log2 mean competition ratio |
| --- | --- |
| TUT7 C343 (UniProt Q5VYS8) | 0.347 |
| UBN2 C515 (UniProt Q6ZU65) | -0.0602 |
| TTC39C C517 (UniProt Q8N584) | 0.0665 |
| TRMT11 C5 (UniProt Q7Z4G4) | -0.283 |
| TUT4 C746 (UniProt Q5TAX3) | -0.137 |
| UACA C1258 (UniProt Q9BZF9) | 0.138 |
| TUT4 C20 (UniProt Q5TAX3) | 0.0555 |
| TWF2 C275 (UniProt Q6IBS0) | 0.161 |
| UBE3C C158 (UniProt Q15386) | 0.162 |
| TSPY9;TSPY2;TSPY3;TSPY4;TSPY8;TSPY10;TSPY1 C283;(C277);(C277);(C283);(C277);(C277);(C277) | 0.107 |
| UBE2O C370 | 0.175 |
| TTK C295 (UniProt P33981) | 0.108 |
| TXNRD2 C54 (UniProt Q9NNW7) | -0.178 |
| TTC7A C337 (UniProt Q9ULT0) | -0.129 |
| TXNDC9 C94 (UniProt O14530) | -0.108 |
| TTC37 C1031 (UniProt Q6PGP7) | -0.0728 |
| TRRAP C420 (UniProt Q9Y4A5) | 0.215 |
| TRRAP C2106 (UniProt Q9Y4A5) | -0.0531 |
| TXNDC16 C821 (UniProt Q9P2K2) | 0.00863 |

Two records picked at random from those above, as already listed:

| Target | log2 mean competition ratio |
| --- | --- |
| UACA C1258 (UniProt Q9BZF9) | 0.138 |
| UBN2 C515 (UniProt Q6ZU65) | -0.0602 |

(continued)

| Target | log2 mean competition ratio |
| --- | --- |
| TTI2 C484 (UniProt Q6NXR4) | 0.148 |
| UBR4 C2554 (UniProt Q5T4S7) | 0.0458 |
| TRMT1L C730 (UniProt Q7Z2T5) | 0.0595 |
| TRRAP C546 (UniProt Q9Y4A5) | -0.0414 |
| UBN1 C711 (UniProt Q9NPG3) | -0.0702 |
| TRRAP C2876 (UniProt Q9Y4A5) | -0.0197 |
| TTC37 C715 (UniProt Q6PGP7) | 0.113 |
| TTC4 C174 (UniProt O95801) | 0.143 |
| TTC30A C93 | -0.0255 |
| TRMT44 C53 (UniProt Q8IYL2) | -0.0455 |
| UBR1 C251 (UniProt Q8IWV7) | 0.0768 |
| TUBGCP6 C598 (UniProt Q96RT7) | 0.0126 |
| TTC28 C2077 (UniProt Q96AY4) | -0.351 |
| TRMT44 C194 (UniProt Q8IYL2) | -0.146 |
| TRMT1 C614 (UniProt Q9NXH9) | 0.12 |
| TUT7 C775 (UniProt Q5VYS8) | 0.161 |
| TUBB4B C354 (UniProt P68371) | 0.153 |
| TTC5 C29 (UniProt Q8N0Z6) | 0.146 |
